Literature values as cited in patent publication US6743446B2, “Methods for stabilizing biologically active agents encapsulated in biodegradable controlled-release polymers” (The Ohio State University Research Foundation, priority 1999, dated 2004).
For at least one compound, name, drawing or mass did not settle the structure.

Conditions: cited from earlier work
For [Ca+2].[OH-].[OH-] [Ca(OH)2], the pKsp is given as 5.26.
In the case of [Mg+2].[OH-].[OH-] [Mg(OH)2], the pKsp is given as 10.74.
For [OH-].[OH-].[Zn+2] [Zn(OH)2], the pKsp is given as 15.68.
